In the assay the target is RIP1 (UniProt Q13546). The assay is described as follows: co-IP; HEK293T cells transfected with RIP1 and JMJD8 constructs; IPKA lysis buffer; 500 μg total protein immunoprecipitated with anti-c-Myc, FLAG or mouse IgG antibody and protein A/G beads overnight at 4 °C; 4 washes; immunoblot.

Protein sequences, listed by entry. Tags and fused reporters are not part of them.
UniProt Q13546: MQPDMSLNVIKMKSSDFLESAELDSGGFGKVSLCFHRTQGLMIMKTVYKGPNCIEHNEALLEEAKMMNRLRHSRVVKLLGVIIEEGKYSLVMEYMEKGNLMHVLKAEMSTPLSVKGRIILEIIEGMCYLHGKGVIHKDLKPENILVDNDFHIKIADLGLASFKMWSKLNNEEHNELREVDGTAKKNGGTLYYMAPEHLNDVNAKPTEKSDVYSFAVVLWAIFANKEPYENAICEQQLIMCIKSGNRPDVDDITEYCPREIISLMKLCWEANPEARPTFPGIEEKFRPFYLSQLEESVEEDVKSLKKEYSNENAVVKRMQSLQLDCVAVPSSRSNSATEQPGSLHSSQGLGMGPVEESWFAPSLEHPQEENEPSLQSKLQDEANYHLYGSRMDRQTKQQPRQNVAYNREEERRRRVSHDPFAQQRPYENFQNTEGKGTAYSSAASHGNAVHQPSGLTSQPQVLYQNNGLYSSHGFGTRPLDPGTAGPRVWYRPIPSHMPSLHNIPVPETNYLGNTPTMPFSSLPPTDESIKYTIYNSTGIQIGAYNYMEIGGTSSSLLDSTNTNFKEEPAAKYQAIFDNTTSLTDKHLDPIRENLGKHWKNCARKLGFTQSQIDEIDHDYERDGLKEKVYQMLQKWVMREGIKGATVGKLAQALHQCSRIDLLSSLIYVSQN

These results are taken from publication PMC5037431.

These are yes or no findings as the source states them, for the method shown. Binding seen in cells or lysates may run through a third protein.

B1: Jumonji domain-containing protein 8 (JMJD8) (protein, UniProt Q96S16 24-264)
chain: EGDGGWRPGGPGAVAEEERCTVERRADLTYAEFVQQYAFVRPVILQGLTDNSRFRALCSRDRLLASFGDRVVRLSTANTYSYHKVDLPFQEYVEQLLHPQDPTSLGNDTLYFFGDNNFTEWASLFRHYSPPPFGLLGTAPAYSFGIAGAGSGVPFHWHGPGYSEVIYGRKRWFLYPPEKTPEFHPNKTTLAWLRDTYPALPPSARPLECTIRAGEVLYFPDRWWHATLNLDTSVFISTFLG
For the molecule B1, the binding result is “no binding”.
